Measurements taken from paper PMC9763329, “Targeting the transcription factor HES1 by L-menthol restores protein phosphatase 6 in keratinocytes in models of psoriasis” (Nature Communications, 2022).
These are yes or no findings as the source states them, for the method shown. In cells and extracts the contact can be indirect. Some results given as binding are weak or reduced against the parent protein; the word gives no strength.

Amino acid sequences for entries named in this document (tags omitted).
UniProt Q9UNE7: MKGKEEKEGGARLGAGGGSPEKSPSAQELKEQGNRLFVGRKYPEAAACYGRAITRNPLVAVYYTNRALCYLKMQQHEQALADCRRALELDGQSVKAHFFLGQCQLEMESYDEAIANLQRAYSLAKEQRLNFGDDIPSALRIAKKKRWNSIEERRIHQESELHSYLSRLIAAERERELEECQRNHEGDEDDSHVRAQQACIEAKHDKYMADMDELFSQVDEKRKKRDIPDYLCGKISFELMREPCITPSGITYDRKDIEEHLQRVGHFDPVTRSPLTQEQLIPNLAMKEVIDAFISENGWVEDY

Target: T1, Protein phosphatase 6 (PP6), endogenous in HaCaT cells (human (endogenous in HaCaT)) (UniProt O00743)
T1 sequence: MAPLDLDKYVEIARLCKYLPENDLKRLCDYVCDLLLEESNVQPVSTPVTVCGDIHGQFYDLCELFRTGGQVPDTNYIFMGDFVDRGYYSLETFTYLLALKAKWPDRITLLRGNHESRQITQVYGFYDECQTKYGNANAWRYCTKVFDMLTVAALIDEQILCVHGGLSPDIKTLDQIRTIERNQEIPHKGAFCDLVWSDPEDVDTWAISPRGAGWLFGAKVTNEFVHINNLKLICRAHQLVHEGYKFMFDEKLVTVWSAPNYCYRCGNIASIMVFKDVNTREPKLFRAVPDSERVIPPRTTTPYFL
Experiment: co-IP; PP6 immunoprecipitated (anti-PPP6C) from HaCaT cells transfected with an HA-Ubiquitin plasmid and scramble siRNA or IGBP1 siRNA, or empty vector or IGBP1 overexpression plasmid; immunoblot for CHIP

- binding: binds
Substance: CHIP (E3 ubiquitin ligase) (from UniProt Q9UNE7 1-303) (enzyme)
